# According to PubChem BioAssay AID1471 (National Center for Advancing Translational Sciences (NCATS), 2008):
# The campaign covered roughly 230,000 compounds. About 310 (0.13%) were called active. Inconclusive results, whose numbers are uncertain, are shown with a selection of clear calls. Calls come from the whole dose curve; as a rule, active = well fitted activation curve with a large enough effect; inconclusive = small, poorly fitted or top-dose-only effect; inactive = no such curve, though single readings can be large or run the other way. Potencies of inconclusive entries are doubtful fits and often do not repeat.
# Experiment: qHTS Multiplex Assay to Identify Dual Action Probes in a Cell Model of Huntington: Cytoprotection (ATP); note: nearly all actives have a fitted effect of over 45% in size;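 for cytoprotection (ATP increase): toxic huntingtin expression switched on by the ecdysone agonist tebufenozide; % of control where 0% means no effect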
# Settings: PC12 HTT-Q103 induced, ATP luminescence, 40 h; cytoprotection (ATP increase): at 56.4 µM (top of the series) unless noted
# Method in brief: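 ATP quantification (ATPlite) reports survival of PC12 cells in which tebufenozide, 100 nM final, switches on Htt exon 1 with 103 glutamines linked to GFP; compounds are titrated.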
# Potency is the fitted concentration of half-maximal effect.
SMILES,Potency,cytoprotection (ATP increase)
C=CC(C)(O)CCCC(C)CCCC(C)CCCC(C)C (stereo not drawn),"inconclusive: 100 nM [activator, partial curve, poor fit]",–
C/C(CC1CC(COCCC(C)C)OC1=O)=N\NC(N)=S (stereo not drawn),"inconclusive: 794 nM [activator, full curve, poor fit]",–
Cc1ccc(CN2CCN(/N=C\c3cccc([N+](=O)[O-])c3)CC2)cc1,"inconclusive: 70.8 nM [activator, partial curve]",–
CCn1cc(C(=O)N[C@H](C)c2ccccc2)c(=O)c2cc(F)c(N3CCN(C)CC3)cc21,"inconclusive: 708 nM [activator, single point]",–
CC1(OC(=O)c2cccs2)C(=O)C=C2C=C(c3ccc(C#N)cc3)OC=C2C1=O (stereo not drawn),"inconclusive: 5620 nM [activator, single point]",–
O=S1(=O)C=C(Sc2nc3ccccc3s2)c2ccccc21,active: 2000 nM,–
Cc1ccc(C)c(N2CCN(C(=O)C(Cc3ccccc3)n3cccc3)CC2)c1 (stereo not drawn),–,inactive: -30.9%
Cn1c(CCN2CCOCC2)nc2cc(NC(=O)c3cccs3)ccc21,"inconclusive: 282 nM [activator, single point]",–
CCOC(=O)Cn1c2ccccc2c2nc(C)sc21,"inconclusive: 3980 nM [activator, single point]",–
Cc1ccc(CNC(=O)COC(=O)CSc2cc(C)c(Br)cc2C)cc1,"inconclusive: 794 nM [activator, single point]",–
Cn1c(=O)c2c(nc(NCc3ccco3)n2C/C=C/c2ccccc2)n(C)c1=O,"inconclusive: 398 nM [activator, full curve, poor fit]",–
COc1ccc(C(=O)NC(=S)Nc2ccc3oc(=O)ccc3c2)cc1OC,–,inactive: 4.36% [at 10 µM]
COc1ccc(C2N(c3ccc(Cl)cc3)N=C(C(C)=O)N(C)N2C(C)=O)cc1 (stereo not drawn),"inconclusive: 31600 nM [activator, single point]",–
Cc1ccc(SCc2nc(N)nc(Nc3ccccc3C)n2)cc1C,"inconclusive: 1260 nM [activator, single point]",–
CC(=O)c1cccc(NC(=O)Nc2ccc(C(=O)N3CCCC3)cc2)c1,–,inactive: -15.4% [at 10 µM]
CC(=O)N1CCN(CC(=O)Nc2sccc2C#N)CC1,"inconclusive: 316 nM [activator, partial curve, poor fit]",–
O=C(CCSCc1cccc(Cl)c1)NCCc1ccc(Cl)cc1,"inconclusive: 3980 nM [activator, single point]",–
CCOCC(=O)Nc1cc(C(=O)Nc2cc(C)cc(C)c2)ccc1Cl,–,inactive: 9.45% [at 10 µM]
CCC(C)NC(=O)CN(c1ccc(OC)cc1)S(=O)(=O)c1ccccc1 (stereo not drawn),"inconclusive: 2820 nM [activator, single point]",–
O=C(NCCCCc1ccccc1)C12CN(Cc3ccccc3)CC1C(c1cccc([N+](=O)[O-])c1)=NO2 (stereo not drawn),–,inactive: -0.482% [at 10 µM]
Cc1ccc(NC(=O)CCC(=O)c2ccc(F)cc2)cc1Cl,–,inactive: -18.5%
CCN=c1scc(-c2ccco2)n1/N=C/c1ccc(O)cc1,–,inactive: -1.53% [at 10 µM]
COc1ccc2oc(/C=C/N(C)C)c(C(=O)c3ccc(Cl)cc3)c2c1,–,inactive: 0.686%

# Arranged by length of the SMILES (low to high): three of the compounds above.
SMILES,Potency,cytoprotection (ATP increase)
CC(=O)N1CCN(CC(=O)Nc2sccc2C#N)CC1,"inconclusive: 316 nM [activator, partial curve, poor fit]",–
Cn1c(CCN2CCOCC2)nc2cc(NC(=O)c3cccs3)ccc21,"inconclusive: 282 nM [activator, single point]",–
O=C(NCCCCc1ccccc1)C12CN(Cc3ccccc3)CC1C(c1cccc([N+](=O)[O-])c1)=NO2 (stereo not drawn),–,inactive: -0.482% [at 10 µM]

# More entries.

SMILES,Potency,cytoprotection (ATP increase)
O=C(NCCO)c1ccc2nc(-c3ccco3)c(-c3ccco3)nc2c1,–,inactive: -1.32%
CCOC(=O)c1c(NS(=O)(=O)c2cccc(OC)c2)sc2c1CCC2,active: 14100 nM,–
OCc1ccccn1,"inconclusive: 631 nM [activator, full curve]",–
Cc1ccc(-n2c(N)c(C(N)=O)sc2=S)cc1,–,inactive: -40.5%
O=C(Oc1ccccc1)N1CCC2(CC1)CCN(c1ccccn1)CC2,–,inactive: -14.6%
Cc1ncc([N+](=O)[O-])n1C[C@H](O)CCl,"inconclusive: 631 nM [activator, partial curve]",–
COc1ccc(O[C@H]2C=C[C@@H](c3ccccc3)O[C@H]2COC(=O)CC/C(C)=N\OC[C@@H](C)[C@H](OCc2ccccc2)C(C)C)cc1,"inconclusive: 891 nM [activator, full curve, poor fit]",–
O=C(CSc1nc(O)c(-c2ccccc2)c(=O)[nH]1)N1CCOCC1,"inconclusive: 2510 nM [activator, partial curve]",–
NC(=O)c1ccc[n+]([C@@H]2O[C@H](COP(=O)([O-])OP(=O)(O)OC[C@H]3O[C@@H](n4cnc5c(N)ncnc54)[C@@H](O)[C@@H]3O)[C@@H](O)[C@@H]2O)c1,"inconclusive: 708 nM [activator, partial curve]",–
c1ccc(CCN=C2CCCc3c2[nH]c2ccccc32)cc1,–,inactive: -11.4% [at 10 µM]
CN(C)CCCNc1ncc(C(F)(F)F)cc1Cl,"inconclusive: 158 nM [activator, full curve]",–
CCCCC(=O)Nc1nnc(C)s1,–,inactive: -25.7% [at 10 µM]
CCN(CC)S(=O)(=O)c1c(OC)cc(C)c(Cl)c1C,–,inactive: 2.97% [at 10 µM]
CC1=Nc2cc(C(=O)O)ccc2Sc2c(C)ccc(C)c21,"inconclusive: 12600 nM [activator, single point]",–
COc1ccc(/C=C/C(=O)Nc2ccc3nc4n(c(=O)c3c2)CCCC4)cc1OC,–,inactive: -5.97%
CCN(CC)CCCNC(CC(=O)Nc1cccc([N+](=O)[O-])c1)C(=O)O (stereo not drawn),"inconclusive: 2510 nM [activator, partial curve, poor fit]",–
NC(=O)C1C(c2ccccc2)=C1c1ccccc1,–,inactive: 0.701%
c1ccc(CNc2oc(-c3ccccc3)nc2-c2ccccc2)cc1,–,inactive: -2.36%
COc1ccc(Br)cc1-c1noc(-c2ccccc2F)n1,–,inactive: -24.8%
CC1C2CCC3C4CC=C5CC(N(C)C)CC[C@@]5(C)C4CC[C@@]32CN1C (stereo partly drawn),"inconclusive: 100 nM [activator, full curve, poor fit]",–
O=C1C2ON(c3ccccc3)C(c3cccnc3)C2C(=O)N1Cc1ccccc1 (stereo not drawn),–,inactive: 8.34%
Cn1c(=O)n2n(c1=O)[C@H]1[C@H](O)[C@H]3O[C@@H]3/C(=N/OCc3ccccc3)[C@@H]1CC2,"inconclusive: 631 nM [activator, full curve, poor fit]",–
COc1ccccc1NC(=S)N(C(C)C)C(C)c1ccccn1 (stereo not drawn),"inconclusive: 15800 nM [activator, single point]",–

SMILES,Potency,cytoprotection (ATP increase)
COc1ccc2[nH]c3c(=O)n4c(nc3c2c1)SCCC4,"inconclusive: 316 nM [activator, partial curve]",–
C=C[C@@]1(C)CC(=O)[C@@]2(O)[C@@]3(C)[C@@H](O)CCC(C)(C)[C@@H]3[C@H](O)[C@H](OC(C)=O)[C@@]2(C)O1,"inconclusive: 89.1 nM [activator, partial curve, poor fit]",–
OCCOCCOc1cccc2[nH]ccc12,"inconclusive: 794 nM [activator, single point]",–
CCOC(=O)c1sc2nc(NC(=O)C(C)(C)C)sc2c1C,–,inactive: -78.5%
CCc1nc2ccccc2n1CC(=O)N1CCN(Cc2ccccc2)CC1,–,inactive: -43%
c1ccc2c(c1)C(=Nn1cnnc1)c1ccccc1-2,–,inactive: -14%
O=C(CNC(=O)c1ccc(F)cc1)N/N=C/c1cc(Br)ccc1OC(=O)/C=C/c1ccco1,"inconclusive: 5620 nM [activator, single point]",–
COc1ccc(-c2nc(NC(C)=O)sc2-c2ccc(OC)cc2)cc1,"inconclusive: 5 nM [activator, full curve, poor fit]",–
CCCCOc1cccc(C(=O)NC(=S)Nc2cccc(NC(=O)c3ccccc3Cl)c2)c1,–,inactive: 23.4% [at 10 µM]
O=S(=O)(NCc1ccccc1)c1ccc(Br)c2nsnc12,–,inactive: -4.71% [at 10 µM]
COCCNC(=O)c1cc(-c2cccnc2)nc2ccc(Br)cc12,–,inactive: -20.1% [at 10 µM]
O=C(CN1C(=O)S/C(=C/c2cc(Br)cs2)C1=O)N1CCOCC1,"inconclusive: 708 nM [activator, partial curve]",–
Cc1ccc(C(=O)Nc2nc(=O)n(C(=O)c3ccccc3Cl)s2)cc1,"inconclusive: 2240 nM [activator, partial curve, poor fit]",–
Fc1cc(F)c2nc(Nc3nc4cc5c(cc4s3)OCO5)sc2c1,"inconclusive: 5620 nM [activator, single point]",–
CCOc1ccc(OCC)c(NC(=O)c2ccc(CNc3c(N4CCOCC4)c(=O)c3=O)cc2)c1,active: 3160 nM,–
Cc1cc2c(cc1S(=O)(=O)N(C)c1ccccc1)NC(=O)CO2,"inconclusive: 1000 nM [activator, single point]",–
Cc1occc1-c1n[nH]c(=S)n1C,"inconclusive: 3980 nM [activator, single point]",–
O=c1c(O)c(-c2ccc(O)c(O)c2)oc2cc(O)cc(O)c12,"inconclusive: 100 nM [activator, full curve, poor fit]",–
C=C(C)C(=O)Nc1cccc(C2=NOC3(C2)C[C@H](C(N)=O)N(C(=O)C(c2ccccc2)c2ccccc2)C3)c1 (stereo partly drawn),"inconclusive: 355 nM [activator, partial curve]",–
Cc1[nH][nH]c(=O)c1C(c1cc2c(cc1Br)OCO2)c1c(C)[nH][nH]c1=O,"inconclusive: 31600 nM [activator, single point]",–
CC(C)=CCC/C(C)=C/CO/N=C1/C[C@@H](O)[C@@H](O)[C@@H]2[C@@H]3C(=O)N(C[C@@H]4CCCO4)C(=O)[C@H]3CC[C@H]12,"inconclusive: 2 nM [activator, full curve, poor fit]",–
COc1ccc(NS(=O)(=O)c2cccc(C(=O)NNC(=O)NCCCl)c2)cc1,–,inactive: -8.38% [at 10 µM]

# Fetched one by one from the list above:
SMILES,Potency,cytoprotection (ATP increase)
COCCNC(=O)c1cc(-c2cccnc2)nc2ccc(Br)cc12,–,inactive: -20.1% [at 10 µM]
Cc1ccc(C(=O)Nc2nc(=O)n(C(=O)c3ccccc3Cl)s2)cc1,"inconclusive: 2240 nM [activator, partial curve, poor fit]",–
